This passage reports T/C and survivor count results from PubChem BioAssay AID328 (DTP/NCI, 2004).

The test system of the assay is BDF1 mice, P388 leukemia ip, median survival T/C. In words: NCI In Vivo Anticancer Drug Screen. Data for tumor model P388 Leukemia (intraperitoneal) in B6D2F1 (BDF1) mice. The note with it: T/C endpoint: median survival time, higher T/C = longer survival. In short, it runs like this:
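Transplantable tumour in mice; compound vs vehicle dosing; survival scored; ratio of treated to control reported.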

The mark [1] stands for this setting: dose: 25.0 mg/kg/injection, schedule: Q01DX009 (ip), vehicle: Klucel (hydroxypropylcellulose) (HPC).
Where [2] appears, read: dose: 25.0 mg/kg/injection, schedule: Q01DX009 (ip), vehicle: saline.
[3] abbreviates: dose: 50.0 mg/kg/injection, schedule: Q01DX009 (ip), vehicle: saline.
Where [4] appears, read: dose: 55.0 mg/kg/injection, schedule: Q04DX003 (ip), vehicle: saline.
Where [5] appears, read: dose: 25.0 mg/kg/injection, schedule: Q04DX003 (ip), vehicle: Klucel (hydroxypropylcellulose) (HPC).

The list shows only some results of the screen, not a fair sample: it gathers tests that were run many times, whatever their T/C, doses with no T/C, and many T/C values between a quarter and a half above the control. Other doses and runs of a compound stand elsewhere. T/C: endpoint of the treated group in % of that of the vehicle group. Some doses have a count of surviving animals in place of a T/C: the source holds a T/C of zero for them, seemingly a mark for toxic or unscored doses. Some doses without a T/C left all or most animals alive at the check, yet need not have been tolerated: the source hardly ever lists a survival T/C far under the control, and the zero likely stands for such cases as well. Counts of survivors are from the toxicity check (mostly the fifth day) where no day follows; animals may have died later. Schedules are NCI's codes, taken here to give the interval after Q, in days (D) or hours (H), and the number of doses after X. Where survival is the endpoint, the PubChem record calls one and a half times the control and up active, and a quarter to a half above the control has no call in these data; cut-offs in other NCI protocols can differ. Some T/C values are followed by the survivors on the day toxicity was checked, most often the fifth; where none is given, no animal had died by that day. Some entries were tested several times; the results are listed from low to high.

As for `Cc1cc(C)c(NC(=O)N(CCCl)N=O)cc1C`, where the note is “dose: 100.0 mg/kg/injection, schedule: Q01DX009 (ip), vehicle: other”, the T/C is 127 and 145 % of control [5 of 6 alive]. Besides, the survivor count (dose: 150.0 mg/kg/injection, schedule: Q01DX009 (ip), vehicle: other) is 2 of 6.
With `CS(=O)c1ncc2cnccn12` (stereo not drawn), the survivor count (dose: 400.0 mg/kg/injection, schedule: Q01DX009 (ip), vehicle: water) was 0 of 6.
For `NC(=O)C(c1ccccc1)N1CCCCC1` (stereo not drawn), the survivor count runs as follows: under setting [1], 6 of 6; (dose: 100.0 mg/kg/injection, schedule: Q01DX009 (ip), vehicle: Klucel (hydroxypropylcellulose) (HPC)) 5 of 6.
As for `Cc1cc(S(=O)(=O)c2ccc(Cl)cc2)nc(S(=O)(=O)c2ccc(Cl)cc2)c1C#N`, the survivor count (dose: 200.0 mg/kg/injection, schedule: Q01DX005 (ip), vehicle: saline with Tween-80) is on record as 3 of 5.
Take `CN(C)c1ccc(C2N(Cc3ccccc3)CCC3CCCCN32)cc1` (stereo not drawn): the survivor count (dose: 200.0 mg/kg/injection, schedule: Q01DX009 (ip), vehicle: saline with Tween-80) is recorded as 6 of 6.
`COc1ccc(C2CCCCC2O)cc1` (stereo not drawn): the survivor count (dose: 400.0 mg/kg/injection, schedule: Q01DX009 (ip), vehicle: Klucel (hydroxypropylcellulose) (HPC)) is on record as 2 of 6.
As to `CC1(C)OC2OC(COC(=O)c3ccccc3)C(=O)C2O1` (stereo not drawn), for the setting “dose: 50.0 mg/kg/injection, schedule: Q01DX009 (ip), vehicle: saline with Tween-80”, the survivor count is 6 of 6.
In the case of `CCN(CC)CCNC(=S)N/N=C(C)\C(C)=N/NC(=S)NCCN(CC)CC`, under setting [2], the survivor count was 4 of 6.
`COc1ccc2c(ccc[n+]2C)c1`: the T/C by setting is: (dose: 16.5 mg/kg/injection, schedule: Q01DX009 (ip), vehicle: saline) 127 and 130 % of control [5 of 6 alive]; under setting [2], 140 [5 of 6 alive] and 145 % of control; (dose: 33.0 mg/kg/injection, schedule: Q01DX009 (ip), vehicle: saline) 135 % of control; under setting [4], 130 % of control. The survivor count under setting [3] is reported as 3 of 6; the survivor count under setting [4] is 3 of 6; the survivor count (dose: 75.0 mg/kg/injection, schedule: Q01DX009 (ip), vehicle: saline) is 3 of 6; the survivor count (dose: 80.0 mg/kg/injection, schedule: Q04DX003 (ip), vehicle: saline) is on record as 1 of 6; the survivor count (dose: 82.5 mg/kg/injection, schedule: Q04DX003 (ip), vehicle: saline) is listed as 1 of 6; the survivor count (dose: 85.0 mg/kg/injection, schedule: Q04DX003 (ip), vehicle: saline) is on record as 4 of 6. In addition, under “dose: 125.0 mg/kg/injection, schedule: Q04DX003 (ip), vehicle: saline”, the survivor count is recorded as 0 of 6.
Take `C=[CH][Sn]([CH]=C)([CH]=C)[O]C(C)=O`: the T/C was 146 % of control (dose: 8.2 mg/kg/injection, schedule: Q01DX009 (ip), vehicle: saline); 149 % of control (dose: 18.0 mg/kg/injection, schedule: Q01DX009 (ip), vehicle: saline); 126 % of control [5 of 6 alive] under setting [5]. The survivor count under setting [1] is given as 0 of 6; the survivor count under setting [5] is 2 of 6; the survivor count under setting [3] was 0 of 6; the survivor count (dose: 50.0 mg/kg/injection, schedule: Q04DX003 (ip), vehicle: Klucel (hydroxypropylcellulose) (HPC)) is listed as 0 of 6.
